{"source": "patent US11802107B2", "about": "“Compounds and methods of use” (Signum Biosciences, Inc., priority 2017, dated 2023)", "key": {"[1]": {"test_system": "P. acnes (ATCC 6919) biofilms", "experiment": "P. acnes biofilm eradication (MBEC), crystal violet", "format": "cell-based, Propionibacterium acnes", "settings": "24 hours, ≥80% eradication vs vehicle, HCl", "description": "P. acnes (ATCC® 6919™) was cultured as described above. Bacteria biofilms were established by seeding P. acnes cultures in 96-well plates and incubating for 24 hours without agitation. Later, biofilms were incubated with test materials for 24 hours. Remaining biofilms were washed and stained with crystal violet. […] The absorbance was measured at 595 nm in a microplate reader. […] Results from disk diffusion susceptibility testing (Kirby-Bauer Method) after 72 hours incubation were also obtained."}, "[2]": {"test_system": "IL-8", "experiment": "P. acnes-induced IL-8 protein on human PBMCs (ELISA)", "format": "cell-based", "settings": "PBMCs + live P. acnes 1:1, test material 30 PM, 24 hours", "description": "(§1) Cryopreserved human Peripheral Blood Mononuclear cells (PBMCs) from healthy adult donors were obtained from Zen Bio, Inc (Cat No. SER-PBMC-F). Cells were cultured in 12-well plates with lymphocyte media (Cat No. LYMPH-1) and incubated with test materials ([…]) and live P. acnes (ATCC® 6919TM) at 1:1 PBMC: P. acnes bacteria ratio for 24 hours at 37° C. and 5% CO2. After incubation, cell media supernatants were harvested and used to measure pro-inflammatory cytokine levels (IL-8, TNF-α, IL-1b, IL-17) using ELISA kits (BD Biosciences® #557966, #555212, #555244; R&D Systems® #DY317). Total RNA was extracted from cells using the RNAqueous® kit (Ambion®; Cat No. 1912) and cDNA was obtained using the High Capacity RNA-to-cDNA kit (Applied Biosystems®; Cat No. 4387406). Quantitative PCR (qPCR) was performed using the TaqMan® Fast Advanced Master Mix (Applied Biosystems®; Cat No. 4444556) and specific TaqMan®-probes human gene primers CXCL8 (IL-8), IL1B (IL-1b), TNF (TNF-α), IL17A (IL-17A) and GAPDH to calculate the relative gene fold expression change per treatment. Gene expression analysis was performed using the comparative Ct method (also known as the 2-[delta][delta]Ct) approach by comparing the Ct values of P. acnes-only treated cells with the untreated samples and normalized to GAPDH gene expression as endogenous housekeeping gene. […]"}, "[3]": {"test_system": "IL-1b", "experiment": "P. acnes-induced IL-1b protein on human PBMCs (ELISA)", "format": "cell-based", "settings": "PBMC, PBMCs + live P. acnes 1:1, test material 30 PM, 24 hours", "description": "as §1"}, "[4]": {"test_system": "IL-17", "experiment": "P. acnes-induced IL-17 protein on human PBMCs (ELISA)", "format": "cell-based", "settings": "PBMC, PBMCs + live P. acnes 1:1, test material 30 PM, 24 hours", "description": "as §1"}, "[5]": {"test_system": "TNF-α", "experiment": "P. acnes-induced TNF-α protein on human PBMCs (ELISA)", "format": "cell-based", "settings": "PBMCs + live P. acnes 1:1, test material 30 PM, 24 hours", "description": "as §1"}, "[6]": {"test_system": "CXCL8 (IL-8)", "experiment": "P. acnes-induced IL-8 gene on human PBMCs (qPCR)", "format": "cell-based", "settings": "PBMC, PBMCs + live P. acnes 1:1, test material 30 PM, 24 hours", "description": "as §1"}, "[7]": {"test_system": "TNF (TNF-α)", "experiment": "P. acnes-induced TNF-α gene on human PBMCs (qPCR)", "format": "cell-based", "settings": "PBMC, PBMCs + live P. acnes 1:1, test material 30 PM, 24 hours, read-out: TNFa-Gene % inhibition", "description": "as §1"}, "[8]": {"test_system": "IL1B (IL-1b)", "experiment": "P. acnes-induced IL-1b gene on human PBMCs (qPCR)", "format": "cell-based", "settings": "PBMC, PBMCs + live P. acnes 1:1, test material 30 PM, 24 hours", "description": "as §1"}, "[9]": {"test_system": "IL17A (IL-17A)", "experiment": "P. acnes-induced IL-17 gene on human PBMCs (qPCR)", "format": "cell-based", "settings": "PBMC, PBMCs + live P. acnes 1:1, test material 30 PM, 24 hours", "description": "as §1"}}, "note": "Counter-ions that a name gives are not always drawn.", "data": [{"smiles": "CCC[C@@H]1C[C@@H](C(=O)N[C@@H]([C@H]2O[C@H](SC)[C@H](O)[C@@H](O)[C@H]2O)[C@H](C)Cl)N(C)C1", "note": "[Clindamycin HCl, reference compound]", "values": [{"measurement": "MBEC", "setting": "[1]", "result": "0.6 μg/mL and (1) μM"}, {"measurement": "IL-8 Protein % inhibition", "setting": "[2]", "result": 36, "unit": "%"}, {"measurement": "inhibition at 30 pM", "setting": "[3]", "result": 32, "unit": "%"}, {"measurement": "inhibition at 30 pM", "setting": "[4]", "result": 89, "unit": "%"}, {"measurement": "TNFa-Protein % inhibition", "setting": "[5]", "result": 10, "unit": "%"}, {"measurement": "inhibition at 30 pM", "setting": "[6]", "result": 0, "unit": "%"}, {"measurement": "inhibition at 30 pM", "setting": "[7]", "result": 10, "unit": "%"}, {"measurement": "inhibition at 30 pM", "setting": "[8]", "result": 3, "unit": "%"}, {"measurement": "inhibition at 30 pM", "setting": "[9]", "result": 41, "unit": "%"}]}]}
